Source: the supplement of paper PMC4604168 (melanoma cell lines)
This is one part of the list. Repeats are few or missing, and single values can be far off.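 Imaging used 1,536-well plates; nuclei positive for cleaved PARP by antibody were divided by total DNA-stained nuclei to yield the apoptosis fraction. Doses for screening kept most cells viable, and cell lines differ markedly in resting and induced cleaved-PARP levels.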

What was measured:
Assay in all cases: cleaved PARP positive nuclei fraction relative to DMSO control; melanoma cells; higher = more apoptosis
Conditions in all cases: library dose: low library concentration; 72 h
WM115 = system: WM115
WM1716 = system: WM1716
WM1745 = system: WM1745
WM3526 = system: WM3526
WM3619 = system: WM3619
WM451Lu = system: WM451Lu

SMILES	cleaved PARP positive nuclei fraction (WM115) [%]	cleaved PARP positive nuclei fraction (WM1716) [%]	cleaved PARP positive nuclei fraction (WM1745) [%]	cleaved PARP positive nuclei fraction (WM3526) [%]	cleaved PARP positive nuclei fraction (WM3619) [%]	cleaved PARP positive nuclei fraction (WM451Lu) [%]
C[C@]12O[C@H](C[C@]1(O)CO)n1c3ccccc3c3c4c(c5c6ccccc6n2c5c31)CNC4=O [Lestaurtinib] + CN1CCN(c2ccc3nc(-c4c(N)c5c(F)cccc5[nH]c4=O)[nH]c3c2)CC1 [Dovitinib] (first compound 0.004 µM, partner dose 0.1 µM)	222	387	108	115	1040	54.1
C[C@]12O[C@H](C[C@]1(O)CO)n1c3ccccc3c3c4c(c5c6ccccc6n2c5c31)CNC4=O [Lestaurtinib] + Cc1cc(SCc2sc(-c3ccc(C(F)(F)F)c(F)c3)nc2C)ccc1OCC(=O)O [GW0742] (first compound 0.004 µM, partner dose 2 µM)	123	147	97.3	244	94.9	94.7
C[As](C)SC[C@H](NC(=O)CC[C@H](N)C(=O)O)C(=O)NCC(=O)O [Darinaparsin] + COc1cc2ncnc(Nc3ccc(Oc4ccccc4)cc3)c2cc1OC [SrcI1] (first compound 0.4 µM, partner dose 2 µM)	39.8	104	121	134	76.2	328
CN(NC(=O)CC(=O)NN(C)C(=S)c1ccccc1)C(=S)c1ccccc1 + O=C(Oc1ccc([N+](=O)[O-])cc1)N1CCC(C(O)(c2ccc3c(c2)OCO3)c2ccc3c(c2)OCO3)CC1 [JZL184] (first compound 0.006 µM, partner dose 1 µM)	121	237	231	69.5	91.3	14.9
O=c1[nH]nc(Sc2ncc([N+](=O)[O-])s2)n1-c1ccc2c(c1)OCCO2 + C[As](C)SC[C@H](NC(=O)CC[C@H](N)C(=O)O)C(=O)NCC(=O)O [Darinaparsin] (first compound 0.2 µM, partner dose 0.4 µM)	138	20.7	205	55.4	125	88.4
C[C@@H]1CCN(C(=O)CC#N)C[C@@H]1N(C)c1ncnc2[nH]ccc12 + O=C(Oc1ccc([N+](=O)[O-])cc1)N1CCC(C(O)(c2ccc3c(c2)OCO3)c2ccc3c(c2)OCO3)CC1 [JZL184] (first compound 1 µM, partner dose 1 µM)	92.2	127	104	66.4	66.4	116
N.N.[Cl][Pt][Cl] [cisplatin] + N#Cc1c(O)c2c(-c3ccc(-c4ccccc4O)cc3)csc2[nH]c1=O [A769662] (first compound 1.6 µM, partner dose 2 µM)	26.6	110	89.9	71.6	85.3	193
Cn1cc(C2=C(c3cn(C4CCN(Cc5ccccn5)CC4)c4ccccc34)C(=O)NC2=O)c2ccccc21 [Enzastaurin] + Cc1cc(Nc2cc(N3CCN(C)CC3)nc(/C=C/c3ccccc3)n2)n[nH]1 [ENMD2076] (first compound 0.8 µM, partner dose 0.04 µM)	76.6	120	102	113	78.1	242
O=C(O)c1ccc2c(c1)nc(Nc1cccc(Cl)c1)c1ccncc12 + O=C(Oc1ccc([N+](=O)[O-])cc1)N1CCC(C(O)(c2ccc3c(c2)OCO3)c2ccc3c(c2)OCO3)CC1 [JZL184] (first compound 0.4 µM, partner dose 1 µM)	137	54.1	82.8	190	87.9	69.5
NCC(=O)Nc1ccc(-n2nc(C(F)(F)F)cc2-c2ccc3c(ccc4ccccc43)c2)cc1 + C/C(O)=C(\C#N)C(=O)Nc1cc(Br)ccc1Br [LFM-A13] (first compound 1 µM, partner dose 2 µM)	273	125	104	153	290	166
Cc1cc(Nc2cc(N3CCN(C)CC3)nc(/C=C/c3ccccc3)n2)n[nH]1 + Cc1cc(SCc2sc(-c3ccc(C(F)(F)F)c(F)c3)nc2C)ccc1OCC(=O)O [GW0742] (first compound 0.04 µM, partner dose 2 µM)	129	89.2	92.4	59	105	32.3
NC(=O)c1ccc(N(C(N)=O)c2c(F)cccc2F)nc1-c1ccc(F)cc1F + N.N.[Cl][Pt][Cl] [cisplatin] (first compound 0.4 µM, partner dose 1.6 µM)	114	77.1	106	48.2	82.4	76.3
CS(=O)(=O)c1ccc(C(=O)Nc2ccc(Cl)c(-c3ccccn3)c2)c(Cl)c1 [vismodegib] + C/C(O)=C(\C#N)C(=O)Nc1cc(Br)ccc1Br [LFM-A13] (first compound 1 µM, partner dose 2 µM)	125	58.6	81.1	85.5	9.58	134
CCN(CC)CCCCNc1ncc2cc(-c3cc(OC)cc(OC)c3)c(NC(=O)NC(C)(C)C)nc2n1 + C/C(O)=C(\C#N)C(=O)Nc1cc(Br)ccc1Br [LFM-A13] (first compound 0.1 µM, partner dose 2 µM)	146	79.2	114	48	90.6	117
O=C(/C=C/c1cccnc1)NCCCCC1CCN(C(=O)c2ccccc2)CC1 + C[C@]12O[C@H](C[C@]1(O)CO)n1c3ccccc3c3c4c(c5c6ccccc6n2c5c31)CNC4=O [Lestaurtinib] (first compound 0.01 µM, partner dose 0.004 µM)	178	241	95.4	91.1	138	65.8
CCN(CC)CCNC(=O)c1c(C)[nH]c(/C=C2\C(=O)Nc3ccc(F)cc32)c1C [sunitinib] + Cc1cc(SCc2sc(-c3ccc(C(F)(F)F)c(F)c3)nc2C)ccc1OCC(=O)O [GW0742] (first compound 0.4 µM, partner dose 2 µM)	39.4	59.6	92.7	90.6	73.9	73.2
C[C@@H](Oc1cc(-c2cnn(C3CCNCC3)c2)cnc1N)c1c(Cl)ccc(F)c1Cl [Crizotinib] + C[As](C)SC[C@H](NC(=O)CC[C@H](N)C(=O)O)C(=O)NCC(=O)O [Darinaparsin] (first compound 0.2 µM, partner dose 0.4 µM)	72.2	84.1	86.7	46	82.2	50.8
C[C@]12O[C@H](C[C@]1(O)CO)n1c3ccccc3c3c4c(c5c6ccccc6n2c5c31)CNC4=O [Lestaurtinib] + N.N.[Cl][Pt][Cl] [cisplatin] (first compound 0.004 µM, partner dose 1.6 µM)	180	98.2	118	98.7	112	99.7
CC1(C)CCC(c2ccc(Cl)cc2)=C(CN2CCN(c3ccc(C(=O)NS(=O)(=O)c4ccc(N[C@H](CCN5CCOCC5)CSc5ccccc5)c(S(=O)(=O)C(F)(F)F)c4)cc3)CC2)C1 + C[C@]12O[C@H](C[C@]1(O)CO)n1c3ccccc3c3c4c(c5c6ccccc6n2c5c31)CNC4=O [Lestaurtinib] (first compound 0.4 µM, partner dose 0.004 µM)	335	33.3	637	26.6	97.7	228
C[As](C)SC[C@H](NC(=O)CC[C@H](N)C(=O)O)C(=O)NCC(=O)O [Darinaparsin] + O=C(Nc1cccc(Cl)c1)Nc1ncc(CCNc2ncnc3ccsc23)s1 [SNS314] (first compound 0.4 µM, partner dose 0.0008 µM)	268	18.7	79.4	114	92.1	32.6
Cn1cnc2c(F)c(Nc3ccc(Br)cc3Cl)c(C(=O)NOCCO)cc21 [selumetinib] + C[As](C)SC[C@H](NC(=O)CC[C@H](N)C(=O)O)C(=O)NCC(=O)O [Darinaparsin] (first compound 0.015 µM, partner dose 0.4 µM)	87.9	75.5	942	101	104	20.3
C[C@]1(O)C[C@@H](c2nc(-c3ccc4ccc(-c5ccccc5)nc4c3)c3c(N)nccn32)C1 + Cc1cc(SCc2sc(-c3ccc(C(F)(F)F)c(F)c3)nc2C)ccc1OCC(=O)O [GW0742] (first compound 0.4 µM, partner dose 2 µM)	31.4	101	102	83.4	88.6	42.1
Cn1cc(C2=C(c3cn(C4CCN(Cc5ccccn5)CC4)c4ccccc34)C(=O)NC2=O)c2ccccc21 [Enzastaurin] + CC(C)CCN1c2nc(Nc3cc(F)c(O)c(F)c3)ncc2N(C)C(=O)C1C [BID1870] (first compound 0.8 µM, partner dose 0.2 µM)	68.6	95.4	96.7	201	87.8	44
O=C(/C=C/c1cccnc1)NCCCCC1CCN(C(=O)c2ccccc2)CC1 + N.N.[Cl][Pt][Cl] [cisplatin] (first compound 0.01 µM, partner dose 1.6 µM)	58.3	77.2	94.6	26	136	43.1
CS(=O)(=O)CCNCc1ccc(-c2ccc3ncnc(Nc4ccc(OCc5cccc(F)c5)c(Cl)c4)c3c2)o1 [lapatinib] + C/C(O)=C(\C#N)C(=O)Nc1cc(Br)ccc1Br [LFM-A13] (first compound 0.8 µM, partner dose 2 µM)	124	79	171	45.2	82.5	17

Retrieved one by one from above (2):
SMILES	cleaved PARP positive nuclei fraction (WM115) [%]	cleaved PARP positive nuclei fraction (WM1716) [%]	cleaved PARP positive nuclei fraction (WM1745) [%]	cleaved PARP positive nuclei fraction (WM3526) [%]	cleaved PARP positive nuclei fraction (WM3619) [%]	cleaved PARP positive nuclei fraction (WM451Lu) [%]
C[As](C)SC[C@H](NC(=O)CC[C@H](N)C(=O)O)C(=O)NCC(=O)O [Darinaparsin] + COc1cc2ncnc(Nc3ccc(Oc4ccccc4)cc3)c2cc1OC [SrcI1] (first compound 0.4 µM, partner dose 2 µM)	39.8	104	121	134	76.2	328
CC1(C)CCC(c2ccc(Cl)cc2)=C(CN2CCN(c3ccc(C(=O)NS(=O)(=O)c4ccc(N[C@H](CCN5CCOCC5)CSc5ccccc5)c(S(=O)(=O)C(F)(F)F)c4)cc3)CC2)C1 + C[C@]12O[C@H](C[C@]1(O)CO)n1c3ccccc3c3c4c(c5c6ccccc6n2c5c31)CNC4=O [Lestaurtinib] (first compound 0.4 µM, partner dose 0.004 µM)	335	33.3	637	26.6	97.7	228
